No constants are given. Whether binding was seen depends on the method and setting. In cells and extracts the contact can be indirect. Some binding calls cover weakened binding; strength is not graded here. Where a sequence is shown, tags or fusion partners need not be part of it.
T1: myc-tagged CLN6 (human (cDNA from HeLa and HEK293-T RNA)) (UniProt Q9NWW5)
T1 sequence: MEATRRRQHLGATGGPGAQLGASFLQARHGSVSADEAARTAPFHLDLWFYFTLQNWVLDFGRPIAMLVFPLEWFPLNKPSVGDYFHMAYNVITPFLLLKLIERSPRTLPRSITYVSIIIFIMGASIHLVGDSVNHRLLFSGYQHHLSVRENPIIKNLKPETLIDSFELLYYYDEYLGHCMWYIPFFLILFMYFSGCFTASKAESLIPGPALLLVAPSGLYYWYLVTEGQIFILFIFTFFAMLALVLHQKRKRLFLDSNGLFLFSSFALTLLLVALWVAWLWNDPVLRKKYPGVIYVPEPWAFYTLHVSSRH


Molecular target: T1, myc-tagged CLN6 (human (cDNA from HeLa and HEK293-T RNA))
Test: co-IP

Binder	binding
myc-tagged CLN6 (protein, UniProt Q9NWW5 1-311) MEATRRRQHLGATGGPGAQLGASFLQARHGSVSADEAARTAPFHLDLWFYFTLQNWVLDFGRPIAMLVFPLEWFPLNKPSVGDYFHMAYNVITPFLLLKLIERSPRTLPRSITYVSIIIFIMGASIHLVGDSVNHRLLFSGYQHHLSVRENPIIKNLKPETLIDSFELLYYYDEYLGHCMWYIPFFLILFMYFSGCFTASKAESLIPGPALLLVAPSGLYYWYLVTEGQIFILFIFTFFAMLALVLHQKRKRLFLDSNGLFLFSSFALTLLLVALWVAWLWNDPVLRKKYPGVIYVPEPWAFYTLHVSSRH	binds
lipase maturation factor 1 (LMF1) (protein, UniProt Q96S06 1-567) MRPDSPTMAAPAESLRRRKTGYSDPEPESPPAPGRGPAGSPAHLHTGTFWLTRIVLLKALAFVYFVAFLVAFHQNKQLIGDRGLLPCRVFLKNFQQYFQDRTSWEVFSYMPTILWLMDWSDMNSNLDLLALLGLGISSFVLITGCANMLLMAALWGLYMSLVNVGHVWYSFGWESQLLETGFLGIFLCPLWTLSRLPQHTPTSRIVLWGFRWLIFRIMLGAGLIKIRGDRCWRDLTCMDFHYETQPMPNPVAYYLHHSPWWFHRFETLSNHFIELLVPFFLFLGRRACIIHGVLQILFQAVLIVSGNLSFLNWLTMVPSLACFDDATLGFLFPSGPGSLKDRVLQMQRDIRGARPEPRFGSVVRRAANVSLGVLLAWLSVPVVLNLLSSRQVMNTHFNSLHIVNTYGAFGSITKERAEVILQGTASSNASAPDAMWEDYEFKCKPGDPSRRPCLISPYHYRLDWLMWFAAFQTYEHNDWIIHLAGKLLASDAEALSLLAHNPFAGRPPPRWVRGEHYRYKFSRPGGRHAAEGKWWVRKRIGAYFPPLSLEELRPYFRDRGWPLPGPL	no binding
